# The other results are listed elsewhere or left out. The signal is at background level for most entries.
# B1: 4-127.5 (protein)
# chain 1: QVQLQESGPGLVKPSETLSLTCAVSGYSISSGYGWSWIRQPPGKGLEWIGYIGGSDSSTNYNPSLKSRVTISKDTSKNQLSLKLRSVTAADTAVYYCGSRGAVAGLGGLDSWGQGLLVTVSS
# chain 2: QSVLTQPPSVSGAPGQRVTISCTGSSSNIGAGYGVQWYQQLPGTAPKLLIYENNKRPSGVFDRFSGSQSGTSGSLTITGLQSEDEADYYCQSYDSSLKAVLFGGGTRLTVL
# Experiments:
# Experiment in all cases: fluorescence intensity of antibody binding to polysaccharide-coupled beads; higher = stronger binding
# [1] = target: pneumococcal polysaccharide Pn38
# [2] = target: pneumococcal polysaccharide Pn39
# [3] = target: pneumococcal polysaccharide Pn4
# [4] = target: pneumococcal polysaccharide Pn40
# [5] = target: pneumococcal polysaccharide Pn41A
# [6] = target: pneumococcal polysaccharide Pn41F
# [7] = target: pneumococcal polysaccharide Pn42
# [8] = target: pneumococcal polysaccharide Pn43
# [9] = target: pneumococcal polysaccharide Pn44
# [10] = target: pneumococcal polysaccharide Pn45
# [11] = target: pneumococcal polysaccharide Pn46
# [12] = target: pneumococcal polysaccharide Pn47A
# [13] = target: pneumococcal polysaccharide Pn47F
# [14] = target: pneumococcal polysaccharide Pn48
# [15] = target: pneumococcal polysaccharide Pn5
# [16] = target: pneumococcal polysaccharide Pn6A
# [17] = target: pneumococcal polysaccharide Pn6B
# [18] = target: pneumococcal polysaccharide Pn6C
# [19] = target: pneumococcal polysaccharide Pn6D
# [20] = target: pneumococcal polysaccharide Pn7A
# [21] = target: pneumococcal polysaccharide Pn7B
# [22] = target: pneumococcal polysaccharide Pn7C
# [23] = target: pneumococcal polysaccharide Pn7F
# [24] = antibody concentration 81.7561 ng/mL
# [25] = antibody concentration 437.17 ng/mL
# [26] = antibody concentration 2337.65 ng/mL
# [27] = antibody concentration 12500 ng/mL
# [28] = antibody concentration 0.1 ng/mL
# [29] = antibody concentration 0.534724 ng/mL
# [30] = antibody concentration 2.8593 ng/mL
# [31] = antibody concentration 15.2894 ng/mL
binder,measurement,setting,value
B1,fluorescence intensity,[1]; [24],28.5 MFI
same,fluorescence intensity,[1]; [25],28.5 MFI
same,fluorescence intensity,[1]; [26],31 MFI
same,fluorescence intensity,[1]; [27],55 MFI
same,fluorescence intensity,[2]; [28],18.5 MFI
same,fluorescence intensity,[2]; [29],18.5 MFI
same,fluorescence intensity,[2]; [30],18 MFI
same,fluorescence intensity,[2]; [31],19 MFI
same,fluorescence intensity,[2]; [24],19 MFI
same,fluorescence intensity,[2]; [25],18.5 MFI
same,fluorescence intensity,[2]; [26],25 MFI
same,fluorescence intensity,[2]; [27],85.5 MFI
same,fluorescence intensity,[3]; [28],20 MFI
same,fluorescence intensity,[3]; [29],19.8 MFI
same,fluorescence intensity,[3]; [30],18.5 MFI
same,fluorescence intensity,[3]; [31],19.8 MFI
same,fluorescence intensity,[3]; [24],19.5 MFI
same,fluorescence intensity,[3]; [25],21 MFI
same,fluorescence intensity,[3]; [26],27 MFI
same,fluorescence intensity,[3]; [27],31.8 MFI
same,fluorescence intensity,[4]; [28],17.8 MFI
same,fluorescence intensity,[4]; [29],17 MFI
same,fluorescence intensity,[4]; [30],17 MFI
same,fluorescence intensity,[4]; [31],16.5 MFI
same,fluorescence intensity,[4]; [24],16.5 MFI
same,fluorescence intensity,[4]; [25],17 MFI
same,fluorescence intensity,[4]; [26],20.5 MFI
same,fluorescence intensity,[4]; [27],72.8 MFI
same,fluorescence intensity,[5]; [28],23.2 MFI
same,fluorescence intensity,[5]; [29],24.5 MFI
same,fluorescence intensity,[5]; [30],24.5 MFI
same,fluorescence intensity,[5]; [31],23.5 MFI
same,fluorescence intensity,[5]; [24],24.5 MFI
same,fluorescence intensity,[5]; [25],24.8 MFI
same,fluorescence intensity,[5]; [26],27 MFI
same,fluorescence intensity,[5]; [27],30.5 MFI
same,fluorescence intensity,[6]; [28],14 MFI
same,fluorescence intensity,[6]; [29],13.5 MFI
same,fluorescence intensity,[6]; [30],13 MFI
same,fluorescence intensity,[6]; [31],12 MFI
same,fluorescence intensity,[6]; [24],12.5 MFI
same,fluorescence intensity,[6]; [25],14 MFI
same,fluorescence intensity,[6]; [26],16 MFI
same,fluorescence intensity,[6]; [27],19.2 MFI
same,fluorescence intensity,[7]; [28],12 MFI
same,fluorescence intensity,[7]; [29],11.5 MFI
same,fluorescence intensity,[7]; [30],12.5 MFI
same,fluorescence intensity,[7]; [31],12.5 MFI
same,fluorescence intensity,[7]; [24],12.5 MFI
same,fluorescence intensity,[7]; [25],12 MFI
same,fluorescence intensity,[7]; [26],13.5 MFI
same,fluorescence intensity,[7]; [27],28.5 MFI
same,fluorescence intensity,[8]; [28],16.5 MFI
same,fluorescence intensity,[8]; [29],16.5 MFI
same,fluorescence intensity,[8]; [30],17 MFI
same,fluorescence intensity,[8]; [31],16 MFI
same,fluorescence intensity,[8]; [24],16.8 MFI
same,fluorescence intensity,[8]; [25],18 MFI
same,fluorescence intensity,[8]; [26],24.5 MFI
same,fluorescence intensity,[8]; [27],165 MFI
same,fluorescence intensity,[9]; [28],26.5 MFI
same,fluorescence intensity,[9]; [29],25 MFI
same,fluorescence intensity,[9]; [30],25.8 MFI
same,fluorescence intensity,[9]; [31],26 MFI
same,fluorescence intensity,[9]; [24],26.5 MFI
same,fluorescence intensity,[9]; [25],25.5 MFI
same,fluorescence intensity,[9]; [26],28 MFI
same,fluorescence intensity,[9]; [27],32.5 MFI
same,fluorescence intensity,[10]; [28],11.5 MFI
same,fluorescence intensity,[10]; [29],12 MFI
same,fluorescence intensity,[10]; [30],10.5 MFI
same,fluorescence intensity,[10]; [31],12 MFI
same,fluorescence intensity,[10]; [24],11.2 MFI
same,fluorescence intensity,[10]; [25],11.5 MFI
same,fluorescence intensity,[10]; [26],13 MFI
same,fluorescence intensity,[10]; [27],15.5 MFI
same,fluorescence intensity,[11]; [28],22.8 MFI
same,fluorescence intensity,[11]; [29],23.5 MFI
same,fluorescence intensity,[11]; [30],25.5 MFI
same,fluorescence intensity,[11]; [31],23.8 MFI
same,fluorescence intensity,[11]; [24],24.5 MFI
same,fluorescence intensity,[11]; [25],23.5 MFI
same,fluorescence intensity,[11]; [26],29.5 MFI
same,fluorescence intensity,[11]; [27],58 MFI
same,fluorescence intensity,[12]; [28],17 MFI
same,fluorescence intensity,[12]; [29],16.5 MFI
same,fluorescence intensity,[12]; [30],16 MFI
same,fluorescence intensity,[12]; [31],16 MFI
same,fluorescence intensity,[12]; [24],16.5 MFI
same,fluorescence intensity,[12]; [25],16.5 MFI
same,fluorescence intensity,[12]; [26],17.5 MFI
same,fluorescence intensity,[12]; [27],25 MFI
same,fluorescence intensity,[13]; [28],12.5 MFI
same,fluorescence intensity,[13]; [29],12.5 MFI
same,fluorescence intensity,[13]; [30],13 MFI
same,fluorescence intensity,[13]; [31],12.5 MFI
same,fluorescence intensity,[13]; [24],13.5 MFI
same,fluorescence intensity,[13]; [25],12.5 MFI
same,fluorescence intensity,[13]; [26],15 MFI
same,fluorescence intensity,[13]; [27],43 MFI
same,fluorescence intensity,[14]; [28],22.5 MFI
same,fluorescence intensity,[14]; [29],21.5 MFI
same,fluorescence intensity,[14]; [30],19 MFI
same,fluorescence intensity,[14]; [31],20.5 MFI
same,fluorescence intensity,[14]; [24],23 MFI
same,fluorescence intensity,[14]; [25],24 MFI
same,fluorescence intensity,[14]; [26],29.5 MFI
same,fluorescence intensity,[14]; [27],35 MFI
same,fluorescence intensity,[15]; [28],10.5 MFI
same,fluorescence intensity,[15]; [29],10 MFI
same,fluorescence intensity,[15]; [30],9.5 MFI
same,fluorescence intensity,[15]; [31],9 MFI
same,fluorescence intensity,[15]; [24],9.5 MFI
same,fluorescence intensity,[15]; [25],10 MFI
same,fluorescence intensity,[15]; [26],13.5 MFI
same,fluorescence intensity,[15]; [27],70 MFI
same,fluorescence intensity,[16]; [28],20.2 MFI
same,fluorescence intensity,[16]; [29],21.5 MFI
same,fluorescence intensity,[16]; [30],21.5 MFI
same,fluorescence intensity,[16]; [31],22.5 MFI
same,fluorescence intensity,[16]; [24],22 MFI
same,fluorescence intensity,[16]; [25],23 MFI
same,fluorescence intensity,[16]; [26],29 MFI
same,fluorescence intensity,[16]; [27],28.2 MFI
same,fluorescence intensity,[17]; [28],20.8 MFI
same,fluorescence intensity,[17]; [29],18.5 MFI
same,fluorescence intensity,[17]; [30],20.5 MFI
same,fluorescence intensity,[17]; [31],20 MFI
same,fluorescence intensity,[17]; [24],21.5 MFI
same,fluorescence intensity,[17]; [25],21 MFI
same,fluorescence intensity,[17]; [26],25 MFI
same,fluorescence intensity,[17]; [27],28 MFI
same,fluorescence intensity,[18]; [28],18.8 MFI
same,fluorescence intensity,[18]; [29],22 MFI
same,fluorescence intensity,[18]; [30],29.8 MFI
same,fluorescence intensity,[18]; [31],36.5 MFI
same,fluorescence intensity,[18]; [24],46.2 MFI
same,fluorescence intensity,[18]; [25],55 MFI
same,fluorescence intensity,[18]; [26],57.8 MFI
same,fluorescence intensity,[18]; [27],78.2 MFI
same,fluorescence intensity,[19]; [28],17.5 MFI
same,fluorescence intensity,[19]; [29],17 MFI
same,fluorescence intensity,[19]; [30],18 MFI
same,fluorescence intensity,[19]; [31],17.5 MFI
same,fluorescence intensity,[19]; [24],18.5 MFI
same,fluorescence intensity,[19]; [25],18.5 MFI
same,fluorescence intensity,[19]; [26],23 MFI
same,fluorescence intensity,[19]; [27],30.5 MFI
same,fluorescence intensity,[20]; [28],22 MFI
same,fluorescence intensity,[20]; [29],21 MFI
same,fluorescence intensity,[20]; [30],20.5 MFI
same,fluorescence intensity,[20]; [31],20.2 MFI
same,fluorescence intensity,[20]; [24],22.5 MFI
same,fluorescence intensity,[20]; [25],25 MFI
same,fluorescence intensity,[20]; [26],66.5 MFI
same,fluorescence intensity,[20]; [27],527 MFI
same,fluorescence intensity,[21]; [28],17 MFI
same,fluorescence intensity,[21]; [29],17.2 MFI
same,fluorescence intensity,[21]; [30],16.8 MFI
same,fluorescence intensity,[21]; [31],16.2 MFI
same,fluorescence intensity,[21]; [24],15.8 MFI
same,fluorescence intensity,[21]; [25],18 MFI
same,fluorescence intensity,[21]; [26],25 MFI
same,fluorescence intensity,[21]; [27],78.5 MFI
same,fluorescence intensity,[22]; [28],18.5 MFI
same,fluorescence intensity,[22]; [29],18 MFI
same,fluorescence intensity,[22]; [30],17.5 MFI
same,fluorescence intensity,[22]; [31],18.5 MFI
same,fluorescence intensity,[22]; [24],15.5 MFI
same,fluorescence intensity,[22]; [25],19 MFI
same,fluorescence intensity,[22]; [26],23.2 MFI
same,fluorescence intensity,[22]; [27],58.5 MFI
same,fluorescence intensity,[23]; [28],15 MFI
same,fluorescence intensity,[23]; [29],16 MFI
same,fluorescence intensity,[23]; [30],15.5 MFI
same,fluorescence intensity,[23]; [31],16 MFI
same,fluorescence intensity,[23]; [24],15.5 MFI
same,fluorescence intensity,[23]; [25],17.5 MFI
same,fluorescence intensity,[23]; [26],24 MFI
same,fluorescence intensity,[23]; [27],199 MFI

# Laid out differently: entries from further up
binder	measurement	setting	value
B1	fluorescence intensity	[1]; [24]	28.5 MFI
same	fluorescence intensity	[11]; [30]	25.5 MFI
same	fluorescence intensity	[22]; [31]	18.5 MFI
same	fluorescence intensity	[22]; [24]	15.5 MFI
same	fluorescence intensity	[23]; [28]	15 MFI

# Fetched one by one from the entries so far (4):
binder,measurement,setting,value
B1,fluorescence intensity,[18]; [30],29.8 MFI
same,fluorescence intensity,[21]; [25],18 MFI
same,fluorescence intensity,[6]; [30],13 MFI
same,fluorescence intensity,[3]; [27],31.8 MFI

# Two consecutive entries already listed, quoted:
binder,measurement,setting,value
B1,fluorescence intensity,[12]; [27],25 MFI
same,fluorescence intensity,[13]; [28],12.5 MFI
